Test results reported in the supplement of paper PMC5949888.
Most values lie at the floor of the assay. Slopes are relative: functional sequences can read slightly below zero.

system: Saccharomyces cerevisiae PS128 hsf1 delta, HSF1(1-493) fusion; assay: growth estimate (transactivation domain function in HSF1 fusion, heat-shock survival) (a.u. (slope of normalised read count over time)); higher = stronger growth at 37°C, i.e. more transactivation activity; details: library: random library
Description: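 Random 60-nt DNA library encoding peptides of up to 20 aa, fused to the C-terminus of yeast HSF1 residues 1-493 (C-terminal TAD deleted) and expressed from the native HSF1 promoter on a CEN plasmid in hsf1-deleted S. cerevisiae PS128. Cells were selected at 37°C on -trp 5-FOA plates for 0, 2, 4, 6 and 8 days and amplicons were sequenced. Growth estimate is the slope of a robust linear fit of total-sum-normalised read counts (normalised to the first time point) over time, using at least 2 replicates. Sequences are classed functional (TAD activity) above a threshold of -0.13, set from stop-codon control sequences.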

Question: How did the growth estimate turn out when FVSHLAWSH was run?
Answer: < -0.25

Question: How did the growth estimate turn out when FVSRFMLCAVRVFVVVQTG was run?
Answer: < -0.25

Question: FVTPGSRQ was tested. Which growth estimate did it give?
Answer: < -0.25

Question: FVVDRGQ was tested. Which growth estimate did it give?
Answer: < -0.25

Question: Which growth estimate does the source give for FVVQLSLDDA here?
Answer: < -0.25

Question: For FVVRNP, which growth estimate is on record?
Answer: -0.237

Question: For FVVRSTGRNRIIHTGW, which growth estimate is on record?
Answer: < -0.25

Question: How did the growth estimate turn out when FWCVFRARGDHKVACSLTPK was run?
Answer: < -0.25

Question: Which growth estimate does the source give for FWDNRRSVPPVIIPHRNVGT here?
Answer: < -0.25

Question: Which growth estimate does the source give for FWLCKRLGGGCGPRLTHLGA here?
Answer: < -0.25

Question: For FWMGCLI, which growth estimate is on record?
Answer: < -0.25

Question: For FWRLLEL, which growth estimate is on record?
Answer: < -0.25

Question: FWYSGL was tested. Which growth estimate did it give?
Answer: -0.249

Question: For FWYVGYED, which growth estimate is on record?
Answer: < -0.25

Question: How did the growth estimate turn out when FWYWEDGASGWVYYSIR was run?
Answer: < -0.25

Question: Which growth estimate does the source give for FYA here?
Answer: < -0.25

Question: With FYLISQL as the substance, how does the growth estimate read?
Answer: < -0.25

Question: How did the growth estimate turn out when FYLLLKRERCVSFR was run?
Answer: < -0.25

Question: Which growth estimate does the source give for FYRTAVPWSRKDLWRM here?
Answer: < -0.25

Question: FYSMYQQCESACRGLTVRAN was tested. Which growth estimate did it give?
Answer: < -0.25

Question: For GAADAGFGAGSPV, which growth estimate is on record?
Answer: -0.103

Question: Which growth estimate does the source give for GAAVV here?
Answer: < -0.25

Question: How did the growth estimate turn out when GADCIG was run?
Answer: -0.202

Question: For GADVYTCQKTFSMLHI, which growth estimate is on record?
Answer: < -0.25

Question: How did the growth estimate turn out when GAE was run?
Answer: < -0.25

Question: Which growth estimate does the source give for GAEE here?
Answer: < -0.25

Question: How did the growth estimate turn out when GAEGRIIDETDATLHRYLHV was run?
Answer: < -0.25

Question: Which growth estimate does the source give for GAENVDRLYSVPASIVGLPR here?
Answer: < -0.25

Question: Which growth estimate does the source give for GAETSCSIVPTSTSSASGSW here?
Answer: < -0.25

Question: GAGDATIWSGRMYRGASLSA was tested. Which growth estimate did it give?
Answer: < -0.25

Question: GAGGIQDTRTDYPEMMRKTA was tested. Which growth estimate did it give?
Answer: < -0.25

Question: GAGSGQPAPGVCAF was tested. Which growth estimate did it give?
Answer: -0.246

Question: With GAISVHETKDVLS as the substance, how does the growth estimate read?
Answer: < -0.25

Question: For GAISY, which growth estimate is on record?
Answer: < -0.25

Question: With GAITRHSQR as the substance, how does the growth estimate read?
Answer: -0.245

Question: How did the growth estimate turn out when GAKEFNVRWRTRLSPRGTVE was run?
Answer: < -0.25

Question: For GALWPLSPHLLSRSRIYICA, which growth estimate is on record?
Answer: < -0.25

Question: Which growth estimate does the source give for GAPAPEKEKIVGTPSLGA here?
Answer: < -0.25

Question: How did the growth estimate turn out when GAPVLTRRLSGGTFTALR was run?
Answer: < -0.25

Question: For GAQ, which growth estimate is on record?
Answer: < -0.25

Question: With GARKSYAPNFEPPGGWTLGP as the substance, how does the growth estimate read?
Answer: < -0.25

Question: With GARLAT as the substance, how does the growth estimate read?
Answer: < -0.25

Question: Which growth estimate does the source give for GARVGIWGRW here?
Answer: < -0.25

Question: GASQESIRLI was tested. Which growth estimate did it give?
Answer: < -0.25

Question: With GATGGMITA as the substance, how does the growth estimate read?
Answer: < -0.25

Question: GATRPSFSLAHANLFSESSS was tested. Which growth estimate did it give?
Answer: < -0.25

Question: Which growth estimate does the source give for GAV here?
Answer: < -0.25

Question: With GAVA as the substance, how does the growth estimate read?
Answer: < -0.25

Question: How did the growth estimate turn out when GAW was run?
Answer: < -0.25

Question: For GAWPNRGNAKPVPHSDRS, which growth estimate is on record?
Answer: < -0.25

Question: How did the growth estimate turn out when GAYS was run?
Answer: < -0.25

Question: Which growth estimate does the source give for GCALIGLIKDHMDVRTTRAS here?
Answer: < -0.25

Question: How did the growth estimate turn out when GCAPVSLPAILALYQSVLAH was run?
Answer: < -0.25

Question: For GCAYGQYRGMSAHTSVKGGI, which growth estimate is on record?
Answer: < -0.25

Question: How did the growth estimate turn out when GCCFRRDSYPCEWEYRRVSW was run?
Answer: < -0.25

Question: GCDGKLTWNRAQLFSRTNRS was tested. Which growth estimate did it give?
Answer: < -0.25

Question: For GCDLARTILR, which growth estimate is on record?
Answer: < -0.25

Question: With GCFL as the substance, how does the growth estimate read?
Answer: < -0.25

Question: How did the growth estimate turn out when GCFRQYAF was run?
Answer: < -0.25

Question: GCGANPVRKR was tested. Which growth estimate did it give?
Answer: < -0.25

Question: For GCGKTGDGSRLNSCCGVPLS, which growth estimate is on record?
Answer: < -0.25

Question: With GCGLTDQYACLLGPFYASKI as the substance, how does the growth estimate read?
Answer: < -0.25

Question: For GCGSSLDSGGRCLS, which growth estimate is on record?
Answer: < -0.25

Question: For GCGVQATNVAQVGSGAVNAP, which growth estimate is on record?
Answer: -0.243

Question: For GCHVSHRLEKYWT, which growth estimate is on record?
Answer: < -0.25

Question: Which growth estimate does the source give for GCISVHHRLGLYSNESGLGL here?
Answer: < -0.25

Question: With GCKDL as the substance, how does the growth estimate read?
Answer: < -0.25

Question: GCLRSAIGVFMGSTDQLETA was tested. Which growth estimate did it give?
Answer: < -0.25

Question: How did the growth estimate turn out when GCLSDKGTRDTKGVQSLSCA was run?
Answer: < -0.25

Question: Which growth estimate does the source give for GCLVRQLV here?
Answer: < -0.25

Question: For GCNGGVSVELPGTSSSEWYG, which growth estimate is on record?
Answer: < -0.25

Question: Which growth estimate does the source give for GCNLGTMSSTSCRVLCINEP here?
Answer: < -0.25

Question: How did the growth estimate turn out when GCNNPLSPTCSPSLGRLDPP was run?
Answer: < -0.25

Question: Which growth estimate does the source give for GCPNTIGDVTRHVSTGGRTA here?
Answer: < -0.25

Question: Which growth estimate does the source give for GCPRRLVQEYFSAKSLEIRL here?
Answer: < -0.25

Question: For GCRQHLHYGVAKQGYFRA, which growth estimate is on record?
Answer: < -0.25

Question: With GCRVRRVWLFVPVCCSTGRE as the substance, how does the growth estimate read?
Answer: < -0.25

Question: GCSALKTNPG was tested. Which growth estimate did it give?
Answer: < -0.25

Question: With GCSGRPDGVDRRVAE as the substance, how does the growth estimate read?
Answer: < -0.25

Question: Which growth estimate does the source give for GCTALPRRPPRRGIKFSQWR here?
Answer: < -0.25

Question: How did the growth estimate turn out when GCTEDTLIDRRQETSRPNGT was run?
Answer: < -0.25

Question: For GCTEGDPALLVAFLVHGLR, which growth estimate is on record?
Answer: < -0.25

Question: Which growth estimate does the source give for GCTQIKGSDRF here?
Answer: < -0.25

Question: GCTSRGVARIFTVRG was tested. Which growth estimate did it give?
Answer: < -0.25

Question: With GCVGQIFGSPCGN as the substance, how does the growth estimate read?
Answer: < -0.25

Question: For GCVQSF, which growth estimate is on record?
Answer: < -0.25

Question: GCW was tested. Which growth estimate did it give?
Answer: < -0.25

Question: With GCYVERR as the substance, how does the growth estimate read?
Answer: < -0.25

Question: Which growth estimate does the source give for GDAKLVSTSYTLTYTSNFEE here?
Answer: < -0.25

Question: How did the growth estimate turn out when GDCVGPS was run?
Answer: < -0.25

Question: For GDDGVIHQLVTIVSESRARE, which growth estimate is on record?
Answer: < -0.25

Question: With GDEW as the substance, how does the growth estimate read?
Answer: < -0.25

Question: How did the growth estimate turn out when GDGTSIEHSRDNGVCLRGVP was run?
Answer: < -0.25

Question: How did the growth estimate turn out when GDGYSKEIYFYK was run?
Answer: < -0.25

Question: For GDHEHLVNAEEVEIYPMSLV, which growth estimate is on record?
Answer: < -0.25

Question: For GDIEPLGCRGAGLPVTSLGM, which growth estimate is on record?
Answer: < -0.25
